# Source: the supplement of paper PMC8728848
# The other results are listed elsewhere or left out.
# Legend:
# Experiment in all cases: glycan array binding signal (z-score within array); higher = stronger binding
# Details in all cases: glycan notation: IUPAC condensed, linker removed
# [1] = molecular target: Neu5Ac(a2-3)Gal6S(b1-4)[Fuc(a1-3)]GlcNAc
# Procedure, shortened: (§1)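 The binding signal is a Z-score computed within each array and averaged over linkers. Arrays of the same protein sequence at different concentrations or buffers were also averaged together. Data originate from 3228 arrays in the Consortium for Functional Glycomics database, kept only where the protein sequence was available.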
# Neu5Ac(a2-3)GalNAc = molecular target: Neu5Ac(a2-3)GalNAc
# Procedure, shortened: as §1
# [2] = molecular target: Neu5Ac(a2-3)GalNAc(b1-4)GlcNAc
# Procedure, shortened: as §1
# [3] = molecular target: Neu5Ac(a2-3)[GalNAc(b1-4)]Gal(b1-4)Glc
# Procedure, shortened: as §1
# [4] = molecular target: Neu5Ac(a2-3)[GalNAc(b1-4)]Gal(b1-4)GlcNAc
# Procedure, shortened: as §1
# [5] = molecular target: Neu5Ac(a2-3)[GalNAc(b1-4)]Gal(b1-4)GlcNAc(b1-3)GalNAc
# Procedure, shortened: as §1
# [6] = molecular target: Neu5Ac(a2-3)[Neu5Ac(a2-6)]GalNAc
# Procedure, shortened: as §1
# Neu5Ac(a2-6)Gal = molecular target: Neu5Ac(a2-6)Gal
# Procedure, shortened: as §1
# [7] = molecular target: Neu5Ac(a2-6)Gal(b1-3)GlcNAc(b1-3)[Gal(b1-4)GlcNAc(b1-6)]Gal(b1-4)Glc
# Procedure, shortened: as §1
# Neu5Ac(a2-6)Gal(b1-4)Glc = molecular target: Neu5Ac(a2-6)Gal(b1-4)Glc
# Procedure, shortened: as §1
# [8] = molecular target: Neu5Ac(a2-6)Gal(b1-4)GlcNAc
# Procedure, shortened: as §1
# [9] = molecular target: Neu5Ac(a2-6)Gal(b1-4)GlcNAc(b1-2)Man
# Procedure, shortened: as §1
# [10] = molecular target: Neu5Ac(a2-6)Gal(b1-4)GlcNAc(b1-2)Man(a1-3)Man(b1-4)GlcNAc(b1-4)GlcNAc
# Procedure, shortened: as §1
# [11] = molecular target: Neu5Ac(a2-6)Gal(b1-4)GlcNAc(b1-2)Man(a1-3)[Gal(b1-4)GlcNAc(b1-2)Man(a1-6)]Man(b1-4)GlcNAc(b1-4)GlcNAc
# Procedure, shortened: as §1
# [12] = molecular target: Neu5Ac(a2-6)Gal(b1-4)GlcNAc(b1-2)Man(a1-3)[GlcNAc(b1-2)Man(a1-6)]Man(b1-4)GlcNAc(b1-4)GlcNAc
# Procedure, shortened: as §1
# [13] = molecular target: Neu5Ac(a2-6)Gal(b1-4)GlcNAc(b1-2)Man(a1-3)[GlcNAc(b1-4)][Neu5Ac(a2-6)Gal(b1-4)GlcNAc(b1-2)Man(a1-6)]Man(b1-4)GlcNAc(b1-4)GlcNAc
# Procedure, shortened: as §1
# [14] = molecular target: Neu5Ac(a2-6)Gal(b1-4)GlcNAc(b1-2)Man(a1-3)[Man(a1-6)]Man(b1-4)GlcNAc(b1-4)GlcNAc
# Procedure, shortened: as §1
# [15] = molecular target: Neu5Ac(a2-6)Gal(b1-4)GlcNAc(b1-2)Man(a1-3)[Neu5Ac(a2-3)Gal(b1-4)GlcNAc(b1-2)Man(a1-6)]Man(b1-4)GlcNAc(b1-4)GlcNAc
# Procedure, shortened: as §1
# [16] = molecular target: Neu5Ac(a2-6)Gal(b1-4)GlcNAc(b1-2)Man(a1-3)[Neu5Ac(a2-6)Gal(b1-4)GlcNAc(b1-2)Man(a1-6)]Man(b1-4)GlcNAc(b1-4)GlcNAc
# Procedure, shortened: as §1
# [17] = molecular target: Neu5Ac(a2-6)Gal(b1-4)GlcNAc(b1-2)Man(a1-3)[Neu5Ac(a2-6)Gal(b1-4)GlcNAc(b1-2)Man(a1-6)]Man(b1-4)GlcNAc(b1-4)[Fuc(a1-6)]GlcNAc
# Procedure, shortened: as §1
# [18] = molecular target: Neu5Ac(a2-6)Gal(b1-4)GlcNAc(b1-2)Man(a1-6)Man(b1-4)GlcNAc(b1-4)GlcNAc
# Procedure, shortened: as §1
# [19] = molecular target: Neu5Ac(a2-6)Gal(b1-4)GlcNAc(b1-2)Man(a1-6)[Gal(b1-4)GlcNAc(b1-2)Man(a1-3)]Man(b1-4)GlcNAc(b1-4)GlcNAc
# Procedure, shortened: as §1
# [20] = molecular target: Neu5Ac(a2-6)Gal(b1-4)GlcNAc(b1-2)Man(a1-6)[GlcNAc(b1-2)Man(a1-3)]Man(b1-4)GlcNAc(b1-4)GlcNAc
# Procedure, shortened: as §1
# [21] = molecular target: Neu5Ac(a2-6)Gal(b1-4)GlcNAc(b1-2)Man(a1-6)[Man(a1-3)]Man(b1-4)GlcNAc(b1-4)GlcNAc
# Procedure, shortened: as §1
# [22] = molecular target: Neu5Ac(a2-6)Gal(b1-4)GlcNAc(b1-2)[Neu5Ac(a2-6)Gal(b1-4)GlcNAc(b1-4)]Man(a1-3)[GlcNAc(b1-4)][Neu5Ac(a2-6)Gal(b1-4)GlcNAc(b1-2)[Neu5Ac(a2-6)Gal(b1-4)GlcNAc(b1-6)]Man(a1-6)]Man(b1-4)GlcNAc(b1-4)GlcNAc
# Procedure, shortened: as §1
# [23] = molecular target: Neu5Ac(a2-6)Gal(b1-4)GlcNAc(b1-2)[Neu5Ac(a2-6)Gal(b1-4)GlcNAc(b1-4)]Man(a1-3)[GlcNAc(b1-4)][Neu5Ac(a2-6)Gal(b1-4)GlcNAc(b1-4)Man(a1-6)]Man(b1-4)GlcNAc(b1-4)GlcNAc
# Procedure, shortened: as §1
# [24] = molecular target: Neu5Ac(a2-6)Gal(b1-4)GlcNAc(b1-2)[Neu5Ac(a2-6)Gal(b1-4)GlcNAc(b1-6)]Man(a1-6)[Neu5Ac(a2-6)Gal(b1-4)GlcNAc(b1-2)Man(a1-3)][GlcNAc(b1-4)]Man(b1-4)GlcNAc(b1-4)GlcNAc
# Procedure, shortened: as §1
# [25] = molecular target: Neu5Ac(a2-6)Gal(b1-4)GlcNAc(b1-3)Gal(b1-3)GlcNAc
# Procedure, shortened: as §1
# [26] = molecular target: Neu5Ac(a2-6)Gal(b1-4)GlcNAc(b1-3)Gal(b1-4)GlcNAc
# Procedure, shortened: as §1
# [27] = molecular target: Neu5Ac(a2-6)Gal(b1-4)GlcNAc(b1-3)Gal(b1-4)GlcNAc(b1-2)Man(a1-3)[Neu5Ac(a2-6)Gal(b1-4)GlcNAc(b1-3)Gal(b1-4)GlcNAc(b1-2)Man(a1-6)]GalNAc
# Procedure, shortened: as §1
# [28] = molecular target: Neu5Ac(a2-6)Gal(b1-4)GlcNAc(b1-3)Gal(b1-4)GlcNAc(b1-3)Gal(b1-4)GlcNAc
# Procedure, shortened: as §1
# [29] = molecular target: Neu5Ac(a2-6)Gal(b1-4)GlcNAc(b1-3)Gal(b1-4)GlcNAc(b1-3)Gal(b1-4)GlcNAc(b1-2)Man(a1-3)[Neu5Ac(a2-6)Gal(b1-4)GlcNAc(b1-3)Gal(b1-4)GlcNAc(b1-3)Gal(b1-4)GlcNAc(b1-2)Man(a1-6)]GalNAc
# Procedure, shortened: as §1
# [30] = molecular target: Neu5Ac(a2-6)Gal(b1-4)GlcNAc(b1-3)Gal(b1-4)GlcNAc(b1-3)GalNAc
# Procedure, shortened: as §1
# [31] = molecular target: Neu5Ac(a2-6)Gal(b1-4)GlcNAc(b1-3)Gal(b1-4)GlcNAc(b1-3)[Neu5Ac(a2-6)Gal(b1-4)GlcNAc(b1-3)Gal(b1-4)GlcNAc(b1-6)]GalNAc
# Procedure, shortened: as §1
# [32] = molecular target: Neu5Ac(a2-6)Gal(b1-4)GlcNAc(b1-3)Gal(b1-4)GlcNAc(b1-6)[Gal(b1-3)]GalNAc
# Procedure, shortened: as §1
# [33] = molecular target: Neu5Ac(a2-6)Gal(b1-4)GlcNAc(b1-3)Gal(b1-4)[Fuc(a1-3)]GlcNAc(b1-3)Gal(b1-4)[Fuc(a1-3)]GlcNAc
# Procedure, shortened: as §1
# [34] = molecular target: Neu5Ac(a2-6)Gal(b1-4)GlcNAc(b1-3)GalNAc
# Procedure, shortened: as §1
# [35] = molecular target: Neu5Ac(a2-6)Gal(b1-4)GlcNAc(b1-3)[Neu5Ac(a2-6)Gal(b1-4)GlcNAc(b1-6)]GalNAc
# Procedure, shortened: as §1
# [36] = molecular target: Neu5Ac(a2-6)Gal(b1-4)GlcNAc(b1-6)GalNAc
# Procedure, shortened: as §1
# [37] = molecular target: Neu5Ac(a2-6)Gal(b1-4)GlcNAc(b1-6)[Gal(b1-3)GlcNAc(b1-3)]Gal(b1-4)Glc
# Procedure, shortened: as §1
# [38] = molecular target: Neu5Ac(a2-6)Gal(b1-4)GlcNAc(b1-6)[Gal(b1-3)]GalNAc
# Procedure, shortened: as §1
# [39] = molecular target: Neu5Ac(a2-6)Gal(b1-4)GlcNAc6S
# Procedure, shortened: as §1
# Neu5Ac(a2-6)GalNAc = molecular target: Neu5Ac(a2-6)GalNAc
# Procedure, shortened: as §1
# [40] = molecular target: Neu5Ac(a2-6)GalNAc(b1-4)GlcNAc
# Procedure, shortened: as §1
# [41] = molecular target: Neu5Ac(a2-6)GalNAc(b1-4)GlcNAc6S
# Procedure, shortened: as §1
binder,measurement,setting,value
"HA-00510 (Pseudomonas aeruginosa), Q02V39_PSEAB (protein) GVPIVNIATPNGAGLSNNHFRDYNVGANGLILNNATGKTQGTQLGGIILGNPNLKGQAAQVILNQVTGGNRSTLAGYTEVAGQSARVIVANPHGITCQGCGFINTPRATLTTGKPIMDGQRLERFQVDGGDIVVEGAELNVGNLEQFDLITRSAKLNAKLYAKNLNIVTGRNDVQADSLQATPRAADGSEKPQLAIDSSALGGMYAGAIRLVGTEQGVGVKLAGDMAASGGDIRIDASGKLSLAQASSQGDLKIAAQAVELNGKTYAGGSAEIRSAEELVNRQS",glycan array binding signal (z-score),[1],-0.511
same,glycan array binding signal (z-score),Neu5Ac(a2-3)GalNAc,-0.748
same,glycan array binding signal (z-score),[2],1.19
same,glycan array binding signal (z-score),[3],-0.269
same,glycan array binding signal (z-score),[4],-0.631
same,glycan array binding signal (z-score),[5],0.049
same,glycan array binding signal (z-score),[6],0.268
same,glycan array binding signal (z-score),Neu5Ac(a2-6)Gal,0.437
same,glycan array binding signal (z-score),[7],0.292
same,glycan array binding signal (z-score),Neu5Ac(a2-6)Gal(b1-4)Glc,0.506
same,glycan array binding signal (z-score),[8],-0.542
same,glycan array binding signal (z-score),[9],2.52
same,glycan array binding signal (z-score),[10],-0.14
same,glycan array binding signal (z-score),[11],0.172
same,glycan array binding signal (z-score),[12],-0.189
same,glycan array binding signal (z-score),[13],-1.02
same,glycan array binding signal (z-score),[14],0.542
same,glycan array binding signal (z-score),[15],-0.534
same,glycan array binding signal (z-score),[16],-0.565
same,glycan array binding signal (z-score),[17],0.558
same,glycan array binding signal (z-score),[18],-0.187
same,glycan array binding signal (z-score),[19],0.066
same,glycan array binding signal (z-score),[20],-0.425
same,glycan array binding signal (z-score),[21],-0.358
same,glycan array binding signal (z-score),[22],-0.337
same,glycan array binding signal (z-score),[23],0.235
same,glycan array binding signal (z-score),[24],-0.499
same,glycan array binding signal (z-score),[25],2.34
same,glycan array binding signal (z-score),[26],-0.921
same,glycan array binding signal (z-score),[27],-0.078
same,glycan array binding signal (z-score),[28],-0.919
same,glycan array binding signal (z-score),[29],3.69
same,glycan array binding signal (z-score),[30],-0.602
same,glycan array binding signal (z-score),[31],2.75
same,glycan array binding signal (z-score),[32],-0.459
same,glycan array binding signal (z-score),[33],-0.154
same,glycan array binding signal (z-score),[34],-0.318
same,glycan array binding signal (z-score),[35],0.241
same,glycan array binding signal (z-score),[36],-0.547
same,glycan array binding signal (z-score),[37],-1.06
same,glycan array binding signal (z-score),[38],-0.19
same,glycan array binding signal (z-score),[39],-0.013
same,glycan array binding signal (z-score),Neu5Ac(a2-6)GalNAc,-0.311
same,glycan array binding signal (z-score),[40],-0.185
same,glycan array binding signal (z-score),[41],0.407

# 4 entries from above, with bars between the fields.
binder | measurement | setting | value
HA-00510 (Pseudomonas aeruginosa), Q02V39_PSEAB (protein) GVPIVNIATPNGAGLSNNHFRDYNVGANGLILNNATGKTQGTQLGGIILGNPNLKGQAAQVILNQVTGGNRSTLAGYTEVAGQSARVIVANPHGITCQGCGFINTPRATLTTGKPIMDGQRLERFQVDGGDIVVEGAELNVGNLEQFDLITRSAKLNAKLYAKNLNIVTGRNDVQADSLQATPRAADGSEKPQLAIDSSALGGMYAGAIRLVGTEQGVGVKLAGDMAASGGDIRIDASGKLSLAQASSQGDLKIAAQAVELNGKTYAGGSAEIRSAEELVNRQS | glycan array binding signal (z-score) | [4] | -0.631
same | glycan array binding signal (z-score) | Neu5Ac(a2-6)Gal | 0.437
same | glycan array binding signal (z-score) | [18] | -0.187
same | glycan array binding signal (z-score) | [39] | -0.013
